Results are given in words; binding and its absence hold for the method and conditions named. Some binding calls cover weakened binding; strength is not graded here.
Experiments:
Assay in all cases: native gel or EMSA
[1] = biological target: NRT2.1 (wild type, Arabidopsis thaliana Col roots) (Arabidopsis thaliana (endogenous in Col roots)) (UniProt O82811)
[2] = biological target: NRT2.1 S501A (transgenic plants) (Arabidopsis thaliana) (UniProt O82811)
[3] = biological target: NRT2.1 S501D (transgenic plants) (Arabidopsis thaliana) (UniProt O82811)

The chains behind the UniProt entries cited, without tags or fusion partners. Where a name states a change or a piece, a line headed by the entry shows the natural chain unless it says otherwise.
UniProt O82811: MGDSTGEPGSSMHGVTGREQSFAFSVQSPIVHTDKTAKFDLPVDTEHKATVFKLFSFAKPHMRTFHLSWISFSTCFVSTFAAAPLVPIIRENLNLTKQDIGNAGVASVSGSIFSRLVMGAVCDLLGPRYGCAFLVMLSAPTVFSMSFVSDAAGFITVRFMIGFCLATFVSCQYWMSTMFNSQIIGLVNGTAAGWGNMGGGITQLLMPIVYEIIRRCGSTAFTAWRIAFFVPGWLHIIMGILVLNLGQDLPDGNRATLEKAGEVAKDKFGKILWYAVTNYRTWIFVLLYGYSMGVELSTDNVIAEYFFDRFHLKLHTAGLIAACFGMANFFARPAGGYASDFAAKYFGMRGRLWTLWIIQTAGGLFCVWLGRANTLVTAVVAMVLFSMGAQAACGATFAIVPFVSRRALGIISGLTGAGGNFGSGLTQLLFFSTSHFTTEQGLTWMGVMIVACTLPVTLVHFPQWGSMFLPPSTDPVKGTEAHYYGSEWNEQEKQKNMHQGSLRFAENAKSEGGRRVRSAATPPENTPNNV

Measured: binding

B1: NAR2.1 (Arabidopsis thaliana roots) (protein, UniProt Q9FGS5 23-210)
chain: AEKVRLFKELDKGALDVTTKPSREGPGVVLDAGKDTLNITWTLSSIGSKREAEFKIIKVKLCYAPPSQVDRPWRKTHDELFKDKTCPHKIIAKPYDKTLQSTTWTLERDIPTGTYFVRAYAVDAIGHEVAYGQSTDDAKKTNLFSVQAISGRHASLDIASICFSVFSVVALVVFFVNEKRKAKIEQSK
binds: all assays above
